We go through 29 compounds from the supplement of paper PMC11348887.

What all share (settings): 5 µM; treatment: days 7-14 after plating, readout day 21
Assay [1] has as its system hPSC-derived cortical neurons (WA09). As to the kind of experiment: nucleus area z-score vs screen plate; higher = larger nuclei (more mature).
Assay [2] has the same test system. The experiment in a line: total neurite length per nucleus (MAP2) z-score; higher = more neurite growth.
The test system is the same in assay [3]. The experiment in a line: nucleus roundness z-score vs screen plate; higher = rounder nuclei (more mature).
Assay [4] has the same test system. As to the kind of experiment: KCl-induced FOS+/EGR-1+ double-positive nuclei fraction z-score (KCl minus unstimulated); higher = stronger activity-induced IEG response.

SMILES strings stand for the structures. Structures can show the parent of a compound that is named as a salt. The list shows a part of the results. Small differences around the control level are noise.

In turn, `Cn1cc(CNCC2CCN(c3ncc(C(=O)NO)cn3)CC2)c2ccccc21` came in with a nucleus area z-score in assay [1] of -5.24. Besides, the “total neurite length per nucleus (z-score)” value in assay [2] was -2.59. In assay [3], the nucleus roundness z-score was -2.7. Also, the “KCl-induced FOS+/EGR-1+ double-positive nuclei fraction z-score” value in assay [4] is -0.637.
In the same order, the values of `Cc1nc(NC(=O)N2CCC[C@H]2C(N)=O)sc1-c1ccnc(C(C)(C)C(F)(F)F)c1` are -1.2, -0.27, -0.103 and -0.412.
On the same counts, the results for `O=c1ccn([C@@H]2O[C@H](CO)[C@@H](O)[C@H]2O)c(=O)[nH]1` [Uridine] are 0.263, 0.229, 0.236 and 1.65.
`CCN1CCN(C(=O)N[C@@H](C(=O)N[C@@H]2C(=O)N3[C@@H]2SC(C)(C)[C@@H]3C(=O)O)c2ccccc2)C(=O)C1=O` [Piperacillin Sodium] had a nucleus area z-score in assay [1] of -0.0681. The “total neurite length per nucleus (z-score)” value in assay [2] was -0.251. For the same compound, the nucleus roundness z-score in assay [3] worked out at 0.0332. In addition, in assay [4], the “KCl-induced FOS+/EGR-1+ double-positive nuclei fraction z-score” value was -0.0463.
On the same counts, the results for `CC(C)c1nc(CN(C)C(=O)N[C@H](C(=O)N[C@@H](Cc2ccccc2)C[C@H](O)[C@H](Cc2ccccc2)NC(=O)OCc2cncs2)C(C)C)cs1` [Ritonavir] are -0.0402, -0.0907, 0.198 and 0.106.
On the same counts, the results for `CC(CN1c2ccccc2Sc2ccccc21)N(C)C` (stereo unspecified) [Promethazine HCl] are 0.0909, -1.03, -0.591 and -0.536.
In the same order, the values of `CN[C@@H]1[C@@H](O)[C@@H](O[C@@H]2[C@@H](O)[C@H](O[C@H]3OC(CN)=CC[C@H]3N)[C@@H](N)C[C@H]2N)OC[C@]1(C)O` [Sisomicin sulfate] are 2.91, 1.73, 0.558 and 0.139.
Take `O=C1O[C@H](CO)[C@@H](O)[C@H](O)[C@H]1O` [Gluconolactone]: in assay [1], the nucleus area z-score came out at 0.288. Also, the “total neurite length per nucleus (z-score)” value in assay [2] was 1.74. Besides, the nucleus roundness z-score in assay [3] was 0.655. Further, in assay [4], the “KCl-induced FOS+/EGR-1+ double-positive nuclei fraction z-score” value amounted to 0.153.
As to `Cc1c(C(=O)NN2CCCCC2)nn(-c2ccc(Cl)cc2Cl)c1-c1ccc(I)cc1`, in assay [1], the nucleus area z-score was 1.82. Further, in assay [2], the “total neurite length per nucleus (z-score)” value is -0.367. The nucleus roundness z-score in assay [3] came to 0.0489. Also, in assay [4], the “KCl-induced FOS+/EGR-1+ double-positive nuclei fraction z-score” value was 0.332.
In the same order, the values of `CN(C/C=C/C#CC(C)(C)C)Cc1cccc2ccccc12` [Terbinafine] are -0.243, -0.31, -0.0225 and -0.127.
In assay [1], `NCCCCCNCC12CC3CC(CC(C3)C1)C2` [IEM 1754 dihydrobroMide] gave a nucleus area z-score of 1.19. For the same compound, the “total neurite length per nucleus (z-score)” value in assay [2] amounted to 0.328. Further, the nucleus roundness z-score in assay [3] came to 0.331. The “KCl-induced FOS+/EGR-1+ double-positive nuclei fraction z-score” value in assay [4] stood at 3.33.
Consider `C[C@@H]1C[C@H]2[C@@H]3C[C@H](F)C4=CC(=O)C=C[C@]4(C)[C@@]3(F)[C@@H](O)C[C@]2(C)[C@@]1(O)C(=O)CO` [Flumethasone], for which, in assay [1], the nucleus area z-score is 0.258. For the same compound, the “total neurite length per nucleus (z-score)” value in assay [2] was 0.26. The compound also showed a nucleus roundness z-score in assay [3] of 0.0838. For the same compound, in assay [4], the “KCl-induced FOS+/EGR-1+ double-positive nuclei fraction z-score” value was -0.338.
Take `COc1cc(C2Oc3cc([C@H]4Oc5cc(O)cc(O)c5C(=O)[C@@H]4O)ccc3OC2CO)ccc1O` (stereo partly specified) [Silymarin]: the nucleus area z-score in assay [1] was found to be 2.27. In addition, the “total neurite length per nucleus (z-score)” value in assay [2] was -1.52. For the same compound, in assay [3], the nucleus roundness z-score was -1.08. The “KCl-induced FOS+/EGR-1+ double-positive nuclei fraction z-score” value in assay [4] was -0.67.
`CO[C@H]1/C=C/O[C@@]2(C)Oc3c(C)c(O)c4c(O)c(c(/C=N/N5CCN(C)CC5)c(O)c4c3C2=O)NC(=O)/C(C)=C\C=C\[C@H](C)[C@H](O)[C@@H](C)[C@@H](O)[C@@H](C)[C@H](OC(C)=O)[C@@H]1C` [Rifampin]: the nucleus area z-score in assay [1] was -0.751. Further, in assay [2], the “total neurite length per nucleus (z-score)” value is -0.104. The same compound returned a nucleus roundness z-score in assay [3] of -1.12. In addition, the “KCl-induced FOS+/EGR-1+ double-positive nuclei fraction z-score” value in assay [4] was -1.58.
In the same order, the values of `CC1(C)S[C@@H]2[C@H](NC(=O)[C@H](NC(=O)N3CCNC3=O)c3ccccc3)C(=O)N2[C@H]1C(=O)O` [Azlocillin sodium salt] are -0.7, 1.44, 1.34 and -0.306.
On the same counts, the results for `CCCCNC(=O)NS(=O)(=O)c1ccc(C)cc1` [Tolbutamide] are 0.602, 0.442, 0.624 and 0.381.
In the same order, the values of `Cc1[nH]nc2ccc(-c3cncc(OC[C@@H](N)Cc4ccccc4)c3)cc12` are -11.7, -5.82, -3.08 and -1.68.
In assay [1], `COc1ncnc(NS(=O)(=O)c2ccc(N)cc2)c1OC` [Sulfadoxine] displayed a nucleus area z-score of -0.905. Also, the “total neurite length per nucleus (z-score)” value in assay [2] is 0.757. This compound registered a nucleus roundness z-score in assay [3] of -0.115. In addition, the “KCl-induced FOS+/EGR-1+ double-positive nuclei fraction z-score” value in assay [4] was found to be 0.593.
`COc1c(N2CCNC(C)C2)c(F)cc2c(=O)c(C(=O)O)cn(C3CC3)c12` (stereo unspecified) [Gatifloxacin] displayed a nucleus area z-score in assay [1] of 0.229. Further, the “total neurite length per nucleus (z-score)” value in assay [2] turned out to be 1. The same compound had a nucleus roundness z-score in assay [3] of 1.3. Also, in assay [4], the “KCl-induced FOS+/EGR-1+ double-positive nuclei fraction z-score” value stood at 1.88.
On the same counts, the results for `O=C(Cc1cccc(OC(F)(F)F)c1)Nc1ccc(CCCCc2nnc(NC(=O)Cc3ccccn3)s2)nn1` are -0.401, 0.0552, 0.206 and 0.967.
On the same counts, the results for `C=CC(=O)Nc1cccc(Sc2nc(Nc3ccc(N4CCN(C)CC4)cc3)ncc2Cl)c1` are -5.02, -0.526, -1.3 and 0.0352.
`COc1cc2c(cc1OCCCN1CCCC1)N=C(N)C21CCC1` showed a nucleus area z-score in assay [1] of 0.806. The “total neurite length per nucleus (z-score)” value in assay [2] was found to be 1.15. This compound displayed a nucleus roundness z-score in assay [3] of 0.939. Also, the “KCl-induced FOS+/EGR-1+ double-positive nuclei fraction z-score” value in assay [4] is -0.0959.
In turn, `CC[C@@H]1C(=O)N(C)c2cnc(Nc3ccc(C(=O)NC4CCN(C)CC4)cc3OC)nc2N1C1CCCC1` yielded a nucleus area z-score in assay [1] of -5.07. The “total neurite length per nucleus (z-score)” value in assay [2] is -1.28. Further, in assay [3], the nucleus roundness z-score was -3.16. For the same compound, the “KCl-induced FOS+/EGR-1+ double-positive nuclei fraction z-score” value in assay [4] is -0.658.
For `COc1cc(N2CCC(N3CCN(C)CC3)CC2)ccc1Nc1ncnc(Nc2ccccc2S(=O)(=O)C(C)C)n1`, the nucleus area z-score in assay [1] is -3.61. For the same compound, the “total neurite length per nucleus (z-score)” value in assay [2] was -0.393. The compound also returned a nucleus roundness z-score in assay [3] of -1.12. In addition, in assay [4], the “KCl-induced FOS+/EGR-1+ double-positive nuclei fraction z-score” value is -0.203.
In the same order, the values of `COc1cc2c(cc1OC)CN(CCc1ccc(NC(=O)c3cc(OC)c(OC)cc3NC(=O)c3cnc4ccccc4c3)cc1)CC2` [Tariquidar] are -1.76, -0.94, -0.482 and 0.347.
Turning to `COc1cc2c(cc1O)CC[C@@H]1[C@@H]2CC[C@]2(C)[C@@H](O)CC[C@@H]12` [2-Methoxyestradiol (2-MeOE2)], the nucleus area z-score in assay [1] is -2.93. Further, the “total neurite length per nucleus (z-score)” value in assay [2] was -0.21. The compound also came in with a nucleus roundness z-score in assay [3] of -0.801. The “KCl-induced FOS+/EGR-1+ double-positive nuclei fraction z-score” value in assay [4] is -0.185.
In the same order, the values of `CC1=CC(=O)NS(=O)(=O)O1` [Acesulfame Potassium] are 0.709, 0.379, 0.257 and 1.13.
Regarding `Cc1ccc(C(=O)Nc2ccc(CN3CCN(C)CC3)c(C(F)(F)F)c2)cc1C#Cc1cnc2[nH]ncc2c1`, the nucleus area z-score in assay [1] was -13.5. Moreover, in assay [2], the “total neurite length per nucleus (z-score)” value was -4.21. Also, the nucleus roundness z-score in assay [3] was -5.22. For the same compound, in assay [4], the “KCl-induced FOS+/EGR-1+ double-positive nuclei fraction z-score” value is -0.674.
For the compound `CC(=O)[C@@]1(O)CC[C@H]2[C@@H]3CCC4=CC(=O)CCC4=C3[C@@H](c3ccc(N(C)C)cc3)C[C@@]21C` [Ulipristal], the nucleus area z-score in assay [1] stood at 0.399. Further, in assay [2], the “total neurite length per nucleus (z-score)” value was determined as 0.117. The compound also yielded a nucleus roundness z-score in assay [3] of 0.287. Also, in assay [4], the “KCl-induced FOS+/EGR-1+ double-positive nuclei fraction z-score” value amounted to 0.411.
